Source: publication PMC4294363

The chains behind the UniProt entries cited, without tags or fusion partners. Where a name states a change or a piece, a line headed by the entry shows the natural chain unless it says otherwise.
UniProt Q9BST9: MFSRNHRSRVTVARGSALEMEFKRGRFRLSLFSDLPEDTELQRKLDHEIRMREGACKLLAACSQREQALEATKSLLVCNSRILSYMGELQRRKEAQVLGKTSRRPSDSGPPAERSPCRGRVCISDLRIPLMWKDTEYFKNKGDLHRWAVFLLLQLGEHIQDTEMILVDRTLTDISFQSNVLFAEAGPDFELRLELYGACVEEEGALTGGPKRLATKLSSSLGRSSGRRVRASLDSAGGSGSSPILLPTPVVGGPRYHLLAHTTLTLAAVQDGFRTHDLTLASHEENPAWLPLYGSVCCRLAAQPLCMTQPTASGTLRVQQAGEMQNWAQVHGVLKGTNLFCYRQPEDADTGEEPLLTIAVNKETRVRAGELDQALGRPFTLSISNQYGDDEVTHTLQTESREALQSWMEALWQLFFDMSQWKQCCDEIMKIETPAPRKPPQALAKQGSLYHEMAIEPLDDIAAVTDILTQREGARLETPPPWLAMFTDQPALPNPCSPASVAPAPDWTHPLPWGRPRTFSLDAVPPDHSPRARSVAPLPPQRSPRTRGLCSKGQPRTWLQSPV
UniProt P61586: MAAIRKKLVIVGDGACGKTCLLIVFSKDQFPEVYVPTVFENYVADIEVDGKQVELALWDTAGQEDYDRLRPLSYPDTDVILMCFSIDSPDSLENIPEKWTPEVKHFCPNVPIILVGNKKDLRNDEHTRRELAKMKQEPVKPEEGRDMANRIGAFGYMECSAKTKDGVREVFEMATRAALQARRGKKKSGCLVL

Molecular target: Glutathione-S-transferase fused Rhotekin binding domain (UniProt Q9BST9)
Assay: pull-down; GST-RBD or GST-PBD on agarose beads incubated with total proteins extracted from tumor tissue (metformin-treated or untreated xenograft mice) for 1 h at 4°C, washed with lysis buffer, Western blotted for RhoA, Cdc42 and Rac1; only the target purified

Q: With RhoA (from UniProt P61586 1-193) as the substance, how does the binding read?
A: binds

Results are given in words; binding and its absence hold for the method and conditions named. Binding seen in cells or lysates may run through a third protein. A result given as binding can be weak or reduced; the word gives no strength.
